Source: article PMC9065090
Results are given in words; binding and its absence hold for the method and conditions named. Binding seen in cells or lysates may run through a third protein. Sequences can lack the tags named with a protein.

Target: full-length CNPY4 (two differentially tagged constructs) (UniProt Q8N129)
Assay: co-IP; two differentially tagged constructs of full-length CNPY4 transfected into HEK293 cells; lysis in 0.5% Triton X-100, 0.5% NP-40, 150 mM NaCl, 50 mM Tris pH 8.0; antibody on protein A beads overnight at 4 °C

binding: no binding
B1: full-length CNPY4 (two differentially tagged constructs) (protein, UniProt Q8N129 22-248)
chain: GMLKEEDDDTERLPSKCEVCKLLSTELQAELSRTGRSREVLELGQVLDTGKRKRHVPYSVSETRLEEALENLCERILDYSVHAERKGSLRYAKGQSQTMATLKGLVQKGVKVDLGIPLELWDEPSVEVTYLKKQCETMLEEFEDIVGDWYFHHQEQPLQNFLCEGHVLPAAETACLQETWTGKEITDGEEKTEGEEEQEEEEEEEEEEGGDKMTKTGSHPKLDREDL
